Laboratory results from patent US20210196766A1, “DESIGNED BACTERIAL COMPOSITIONS AND USES THEREOF” (Seres Therapeutics, Inc., priority 2019, published 2021).
At least one structure is not confirmed: it was looked up by name or label, or the drawing left a doubt.

Experiments:
[1] = system: HDAC enzymes (HeLa nuclear extract); test: HDAC inhibition assay of bacterial supernatants (HDAC-Glo I/II, HeLa nuclear extract); format: biochemical; settings: sterile supernatant spiked with 15 mM
HT29 cells = test: Anti-inflammatory assay in IECs: TNF-α-driven IL-8 secretion by HT29 cells; format: cell-based, human; settings: metabolites
[2] = system: primary human colon epithelial cell monolayer; test: Primary epithelial cell monolayer barrier integrity assay (IFN-γ, FITC-dextran); settings: metabolites, starting at a concentration of about 5 mM
[3] = system: LPS-stimulated peripheral blood mononuclear cells (PBMCs); test: TNF-α and IL-10 production in LPS-stimulated PBMCs; format: cell-based; settings: LPS-stimulated PBMCs, 12.5, 25 and 50 μM

## CCCC(=O)O [butyrate]
[1]
  HDAC inhibition: 65-75%
HT29 cells
  TNF-α-dependent IL-8 secretion: reduced levels of TNF-α-dependent IL-8 secretion
[2]
  restoration of barrier integrity in the presence of IFN-γ: restored barrier integrity

## C[C@H](CCC(=O)O)[C@H]1CC[C@H]2[C@@H]3CC[C@@H]4C[C@H](O)CC[C@]4(C)[C@H]3C[C@H](O)[C@]12C [deoxycholic acid]
[3]
  IL-10 production: increase IL-10 production
  TNF-α production: decrease TNF-α production

## C[C@H](CCC(=O)O)[C@H]1CC[C@H]2[C@@H]3CC[C@@H]4C[C@H](O)CC[C@]4(C)[C@H]3CC[C@]12C [lithocholic acid]
[3]
  IL-10 production: increase IL-10 production
  TNF-α production: decrease TNF-α production
